Experimental data published in PubChem BioAssay AID540276 (National Center for Advancing Translational Sciences (NCATS), 2011).
About 5,400 (1.8%) of roughly 300,000 compounds were called active. Inconclusive means that the source gave no clear call. Such entries were picked first, then a sample of the others. The call rests on the fitted dose curve; tested in HEK293 cells. Potencies of inconclusive entries are doubtful fits and often do not repeat.
Potency means the concentration at half of the fitted maximal effect.

Test: qHTS for inhibitors of binding or entry into cells for Marburg Virus
Details: Marburg virus pseudotyped entry inhibition, cell reporter; series mostly up to 37.8 µM
For `N#CC1=C(N)Oc2cc(N)ccc2C1C1CC=CCC1` (configuration not stated), the Potency was inconclusive: 1.83 µM [inhibitor, full curve, poor fit].
For `COc1cc(CNCc2ccncc2)cc(Br)c1OCc1ccccc1F`, the Potency was inconclusive: 29.1 µM [inhibitor, single point].
For `O=C(c1ccncc1)N(Cc1cc2ccccc2[nH]c1=O)C1CCCCC1`, the Potency was inconclusive: 18.3 µM [inhibitor, partial curve, poor fit].
In the case of `O=C1c2ccccc2C(=O)C1c1ccc2ccccc2n1`, the Potency is reported as inconclusive: 4.61 µM [inhibitor, full curve, poor fit].
For `COc1ccccc1OCCNC(=O)CCS(=O)(=O)c1ccccc1`, the Potency was “inactive”.
In the case of `CC(=NNC(=S)N1CCN(c2ccccn2)CC1)c1nccs1`, the Potency is reported as inconclusive: 4.47 µM [inhibitor, full curve, poor fit].
For `Cc1cccc(N2CC(O)(c3cccs3)[N+]3=C2CCCCC3)c1` (configuration not stated), the Potency was inconclusive: 35.5 µM [inhibitor, single point].
For `OC1(CN2CCOCC2)C2CN3CCN(C2)CC1(c1ccccc1)C3` (configuration not stated), the Potency was inconclusive: 3.55 µM [inhibitor, full curve, poor fit].
In the case of `CCc1cc2c(=O)c(-c3cnn(-c4ccccc4)c3)c(C)oc2cc1OCC(=O)Nc1cccc(C)c1`, the Potency is reported as inconclusive: 6.31 µM [inhibitor, single point].
With `CC(Sc1nnc(COc2ccc(Cl)cc2)n1Cc1ccccc1)C(=O)O` (configuration not stated) the Potency was inconclusive: 17.8 µM [inhibitor, single point].
With `COc1ccc(-c2n[nH]c(C)c2-c2cnn(-c3ccccc3)c2)c(O)c1` the Potency was inconclusive: 10.3 µM [inhibitor, single point].
With `S=C(N/N=C/c1ccc(Br)cc1)N1CCCCC1` the Potency was inconclusive: 0.562 µM [activator, full curve, poor fit].
In the case of `Cc1nc2sc3c(c2c(=O)n1N)CCC3`, the Potency is reported as “inactive”.
For `COc1ccccc1C1CCN(c2ccc(CO)cc2[N+](=O)[O-])CC1`, the Potency was inconclusive: 35.5 µM [inhibitor, partial curve, poor fit].
In the case of `O=C(Cc1ccc(-n2c(=O)c3sccc3n(CC(=O)Nc3ccccc3)c2=O)cc1)NCc1ccco1`, the Potency is reported as “inactive”.
In the case of `CS(=O)(=O)c1ccc(C(=O)OCC(=O)NC(=O)C2CCCCC2)cc1[N+](=O)[O-]`, the Potency is reported as inconclusive: 29.1 µM [inhibitor, single point].
In the case of `COc1ccc(N2CCN(c3cnc4ccccc4n3)CC2)cc1`, the Potency is reported as “inactive”.
With `Cc1ccc2nc3c(cc2c1)c(NS(=O)(=O)c1ccccc1)nn3CC(C)C` the Potency was inconclusive: 0.891 µM [activator, full curve, poor fit].
With `NC(N)=NC(=O)c1nc(Cl)c(N2CCCCCC2)nc1N` the Potency was active: 7.08 µM.
For `CCN(CC)CC(=O)c1ccc(-c2ccccc2)cc1`, the Potency was “inactive”.
In the case of `COc1ccc(OCc2nnnn2-c2ccccc2)cc1`, the Potency is reported as “inactive”.
For `CCc1ccc(N2CC(C(=O)N3CCCCCC3)CC2=O)cc1` (configuration not stated), the Potency was “inactive”.
With `CCOC(=O)/C=c1\s/c(=C(/C#N)C(=O)OCC)n(-c2ccccc2)c1=O` the Potency was “inactive”.
In the case of `CC(C)Cn1nc(NC(=O)C2CCCO2)c2cc3ccccc3nc21` (configuration not stated), the Potency is reported as inconclusive: 7.08 µM [inhibitor, partial curve].
For `COc1ccc(N=Cc2sc(O)c3ccccc23)cc1`, the Potency was inconclusive: 2.51 µM [activator, partial curve, poor fit].
With `CC1CN(S(=O)(=O)c2cccc(C(=O)Nc3ccccc3N3CCCC3)c2)CC(C)O1` (configuration not stated) the Potency was inconclusive: 4.47 µM [inhibitor, full curve, poor fit].
For `CCCCc1sc(-c2c(C#N)c(N)nc3c2CCCCC3)cc1[N+](=O)[O-]`, the Potency was inconclusive: 20.6 µM [inhibitor, partial curve, poor fit].
With `Cc1ccc(CNC(=O)c2oc3ccc(S(=O)(=O)N4CCOCC4)cc3c2C)cc1` the Potency was inconclusive: 16.4 µM [inhibitor, partial curve, poor fit].
In the case of `Cn1nccc1C(=O)NC1CCCc2c1cnn2-c1ccc(C(C)(C)C)cc1` (configuration not stated), the Potency is reported as inconclusive: 1 µM [inhibitor, partial curve, poor fit].
In the case of `O=[N+]([O-])c1ccc2c(c1)nnn2-c1ccccc1`, the Potency is reported as inconclusive: 20 µM [inhibitor, partial curve, poor fit].
For `O=C1CN(/N=C/c2ccc([N+](=O)[O-])o2)C(=O)N1`, the Potency was inconclusive: 29.1 µM [inhibitor, single point].
For `COc1ccc(CCNC(=O)CSc2ccc(-c3ccco3)nn2)cc1OC`, the Potency was inconclusive: 7.94 µM [inhibitor, partial curve, poor fit].
In the case of `O=C(N/N=C/c1ccc([N+](=O)[O-])s1)C(O)c1ccccc1` (configuration not stated), the Potency is reported as “inactive”.
In the case of `COc1ccc(NS(=O)(=O)c2ccc(N/N=C(\C)c3ccncc3)c([N+](=O)[O-])c2)cc1`, the Potency is reported as active: 6.31 µM.
For `CC(Oc1ccc(Cl)cc1)C(=O)NCCCn1ccnc1` (configuration not stated), the Potency was inconclusive: 29.1 µM [inhibitor, single point].
For `CCOc1cc(N2CCOCC2)c(OCC)cc1NC(=O)c1ccc(-n2ccnc2)c([N+](=O)[O-])c1`, the Potency was inconclusive: 6.31 µM [inhibitor, full curve, poor fit].
For `Cc1cc(N2C(=O)Cc3ccccc3C2=O)ccc1C(C)C`, the Potency was inconclusive: 0.891 µM [inhibitor, single point].
In the case of `CC(=O)c1c(C)[nH]c(C(=O)OCc2ccccc2F)c1C`, the Potency is reported as inconclusive: 35.5 µM [inhibitor, single point].
With `CCN(CC)c1ccc(-c2nnc(SCC(=O)N(CCOC)c3c(N)n(CC(C)C)c(=O)[nH]c3=O)o2)cc1` the Potency was inconclusive: 17.8 µM [activator, partial curve, poor fit].
For `C=CCC1CCCCC12NC(=O)N(c1ccccc1)N2` (configuration not stated), the Potency was inconclusive: 17.8 µM [inhibitor, partial curve, poor fit].
For `O=C(NCCCn1ccnc1)c1cc2nc(-c3ccc(Br)cc3)cc(C(F)(F)F)n2n1`, the Potency was inconclusive: 29.1 µM [inhibitor, single point].
With `COc1cccc(NC(=O)CN(C)C(=O)c2cccc(S(=O)(=O)N3c4ccccc4CC3C)c2)c1` (configuration not stated) the Potency was inconclusive: 22.4 µM [inhibitor, partial curve, poor fit].
